Assay results published in patent US8475775B1, “Retinoids and use thereof” (The UAB Research Foundation, priority 2012, dated 2013).
Some of these results come from one statement about several compounds together.

System: hairless SKH1-E mice
Experiment: Histopathology of dorsal skin: hyperkeratosis/serocellular crust, utriculus formation, sebaceous gland hyperplasia
Format: in vivo
Details: 0.1% topical for 14 days; of 5 mice per group
Procedure: Female SKH1-E hairless mice (Crl:SKH1-Hrhr) weighing 22±2 g were used. The animals were divided into groups of 5 each. Once a day, 100 μl of vehicle, tazarotene, and test articles were applied on the back with a micropipette and smeared evenly with gloved finger on approximately 8 cm2 (2×4 cm) of the dorsal skin; 20 μl was applied to the right ear. The tested animals were treated for two consecutive weeks. Body weight was monitored twice a week.
Epidermal hyperplasia on the dorsal skin was used as a marker of retinoid activity. For histological evaluation, mice were sacrificed on day 15. The dorsal skin was dissected and stretched to the natural size on the filter. Punch biopsies (ED 8 mm) were obtained, fixed in 10% buffered formalin, and embedded in paraffin. Five micro thick sections were cut, stained with H&E, and a representative section of each biopsy was selected for histological evaluation.
For histological evaluation, the dorsal skin was dissected and stretched to the natural size on the filter. Punch biopsies (ED 8 mm) were obtained, fixed in 10% buffered formalin, and embedded in paraffin. Five micro thick sections were cut, stained with H&E, and a representative section of each biopsy was selected for histological evaluation. Right ear was harvested on day 15 for measurements of myeloperoxidase activity by mouse MPO ELISA kit, a measure of neutrophil infiltrates.

CCOC(=O)c1ccc(C#Cc2ccc3c(c2)C(C)(C)CCS3)nc1 [Tazarotene, reference compound]
Hyperkeratosis and/or serocellular crust, number of mice affected: 3-5
